Experiment: Recovery of 14C-labeled permethrin through the extraction procedure in ground beef samples
Settings: ground beef spiked with 500 ng/g permethrin

Compound: CC1(C)C(C=C(Cl)Cl)C1C(=O)OCc1cccc(Oc2ccccc2)c1 (mixture of isomers) [Permethrin, 3-phenoxybenzyl (lRS),cis,trans-3(2,2-dichlorovinyl)-2,2-dimethylcyclopropanecarboxylate]
- total radiolabel recovered in the final benzene fraction: 62% +/-2.9
- recovery in the acetonitrile extract (after fat removal) (radiolabel): 72% +/-1.7
- recovery in the hexane fraction (radiolabel): 65.5% +/-3.5
